From PubChem BioAssay AID248 (DTP/NCI, 2004)
The list shows only some results of the screen, not a fair sample: it gathers tests that were run many times, whatever their T/C, doses with no T/C, and many T/C values between a quarter and a half above the control. Other doses and runs of a compound stand elsewhere. T/C gives the treated animals as a percentage of the vehicle group. Some entries give survivors of the animals treated and no T/C: the source files T/C as zero there, which appears to mark a toxic dose or a test without result, not a measured value. Some survivor counts are full or nearly so, which does not show that the dose was tolerated: survival well below the control is almost never listed, so the zero probably covers shortened survival too. Counts of survivors are from the toxicity check (mostly the fifth day) where no day follows; animals may have died later. Schedule codes are those of the source, taken here to give the interval after Q, in days (D) or hours (H), and the number of doses after X. Some molecules as drawn cover several salts, stereoisomers or complexes of the source; a dose is that of the sample tested. Where survival is the endpoint, the PubChem record calls one and a half times the control and up active, and a quarter to a half above the control has no call in these data; cut-offs in other NCI protocols can differ. Some entries were tested several times; the results are listed from low to high.

Test system: L1210 leukemia ip in BDF1 mice, survival T/C
Assay: NCI In Vivo Anticancer Drug Screen. Data for tumor model L1210 Leukemia (intraperitoneal) in B6D2F1 (BDF1) mice
Conditions: higher T/C = longer survival

NC(C/[N+]([O-])=N/O)C(=O)O (stereo not given)
T/C (T/C endpoint: mean survival time, dose: 25.0 mg/kg/injection, schedule: Q01DX009 (ip), vehicle: saline): 125 % of control | T/C (T/C endpoint: mean survival time, dose: 32.0 mg/kg/injection, schedule: Q03HX016 (ip), vehicle: saline): 125 % of control | T/C (T/C endpoint: mean survival time, dose: 50.0 mg/kg/injection, schedule: Q01DX009 (ip), vehicle: saline): 120, 127, 129, 141 % of control | T/C (T/C endpoint: mean survival time, dose: 64.0 mg/kg/injection, schedule: Q03HX016 (ip), vehicle: saline): 127 % of control | T/C (T/C endpoint: mean survival time, dose: 67.0 mg/kg/injection, schedule: Q01DX009 (ip), vehicle: saline with Tween-80): 128 % of control | T/C (T/C endpoint: mean survival time, dose: 80.0 mg/kg/injection, schedule: Q01DX009 (ip), vehicle: saline): 131 % of control | T/C (T/C endpoint: mean survival time, dose: 82.0 mg/kg/injection, schedule: Q04DX003 (ip), vehicle: saline with Tween-80): 126 % of control | T/C (T/C endpoint: mean survival time, dose: 100.0 mg/kg/injection, schedule: Q01DX003 (ip), vehicle: sodium bicarbonate): 133 % of control | T/C (T/C endpoint: mean survival time, dose: 100.0 mg/kg/injection, schedule: Q01DX009 (ip), vehicle: saline with Tween-80): 140 and 141 % of control | T/C (T/C endpoint: mean survival time, dose: 100.0 mg/kg/injection, schedule: Q01DX009 (ip), vehicle: saline): 127, 136, 141, 146 % of control | T/C (T/C endpoint: mean survival time, dose: 100.0 mg/kg/injection, schedule: Q04DX003 (ip), vehicle: Klucel (hydroxypropylcellulose) (HPC)): 125 % of control | T/C (T/C endpoint: mean survival time, dose: 100.0 mg/kg/injection, schedule: Q04DX003 (ip), vehicle: saline with Tween-80): 145 % of control | T/C (T/C endpoint: mean survival time, dose: 100.0 mg/kg/injection, schedule: Q04DX003 (ip), vehicle: saline): 128, 129, 142, 148 % of control | T/C (T/C endpoint: mean survival time, dose: 124.0 mg/kg/injection, schedule: Q04DX003 (ip), vehicle: saline with Tween-80): 129 % of control | survivor count (T/C endpoint: mean survival time, dose: 128.0 mg/kg/injection, schedule: Q01DX009 (oral), vehicle: saline): 8 of 8 | T/C (T/C endpoint: mean survival time, dose: 128.0 mg/kg/injection, schedule: Q03HX024 (ip), vehicle: saline): 143 % of control | T/C (T/C endpoint: mean survival time, dose: 150.0 mg/kg/injection, schedule: Q01DX009 (ip), vehicle: saline): 142 % of control | T/C (T/C endpoint: mean survival time, dose: 187.0 mg/kg/injection, schedule: Q04DX003 (ip), vehicle: saline with Tween-80): 137 % of control | survivor count (T/C endpoint: mean survival time, dose: 200.0 mg/kg/injection, schedule: Q01DX009 (ip), vehicle: saline with Tween-80): 6 of 6 | T/C (T/C endpoint: mean survival time, dose: 200.0 mg/kg/injection, schedule: Q04DX003 (ip), vehicle: Klucel (hydroxypropylcellulose) (HPC)): 138 % of control | T/C (T/C endpoint: mean survival time, dose: 200.0 mg/kg/injection, schedule: Q04DX003 (ip), vehicle: saline with Tween-80, evaluated on day 30): 143 % of control | T/C (T/C endpoint: mean survival time, dose: 200.0 mg/kg/injection, schedule: Q04DX003 (ip), vehicle: saline with Tween-80, evaluated on day 60): 136 % of control | T/C (T/C endpoint: mean survival time, dose: 200.0 mg/kg/injection, schedule: Q04DX003 (ip), vehicle: saline): 139, 141, 149 % of control | survivor count (T/C endpoint: mean survival time, dose: 256.0 mg/kg/injection, schedule: Q01DX009 (oral), vehicle: saline): 6 of 8 | survivor count (T/C endpoint: mean survival time, dose: 256.0 mg/kg/injection, schedule: Q01DX009 (sc), vehicle: saline): 7 of 8 | T/C (T/C endpoint: mean survival time, dose: 256.0 mg/kg/injection, schedule: Q04DX003 (ip), vehicle: saline): 138 % of control | T/C (T/C endpoint: mean survival time, dose: 266.0 mg/kg/injection, schedule: Q04DX003 (ip), vehicle: saline with Tween-80): 142 % of control | T/C (T/C endpoint: mean survival time, dose: 320.0 mg/kg/injection, schedule: Q01DX009 (ip), vehicle: saline): 129 % of control | survivor count (T/C endpoint: mean survival time, dose: 400.0 mg/kg/injection, schedule: Q01DX009 (ip), vehicle: saline with Tween-80): 4 of 6 | T/C (T/C endpoint: mean survival time, dose: 400.0 mg/kg/injection, schedule: Q04DX003 (ip), vehicle: saline with Tween-80, evaluated on day 30): 121, 158, 162 % of control | T/C (T/C endpoint: mean survival time, dose: 400.0 mg/kg/injection, schedule: Q04DX003 (ip), vehicle: saline with Tween-80, evaluated on day 60): 160 % of control | T/C (T/C endpoint: mean survival time, dose: 400.0 mg/kg/injection, schedule: Q04DX003 (ip), vehicle: saline): 139 % of control | survivor count (T/C endpoint: mean survival time, dose: 512.0 mg/kg/injection, schedule: Q01DX009 (oral), vehicle: saline): 6 of 8 | survivor count (T/C endpoint: mean survival time, dose: 512.0 mg/kg/injection, schedule: Q01DX009 (sc), vehicle: saline): 8 of 8 | T/C (T/C endpoint: mean survival time, dose: 512.0 mg/kg/injection, schedule: Q04DX003 (ip), vehicle: saline): 131 % of control | T/C (T/C endpoint: mean survival time, dose: 512.0 mg/kg/injection, schedule: Q08DX002 (ip), vehicle: saline): 129 % of control | T/C (T/C endpoint: mean survival time, dose: 600.0 mg/kg/injection, schedule: Q04DX003 (ip), vehicle: Klucel (hydroxypropylcellulose) (HPC)): 125 % of control | T/C (T/C endpoint: mean survival time, dose: 600.0 mg/kg/injection, schedule: Q04DX003 (ip), vehicle: saline with Tween-80, evaluated on day 30): 146 % of control | T/C (T/C endpoint: mean survival time, dose: 600.0 mg/kg/injection, schedule: Q04DX003 (ip), vehicle: saline with Tween-80, evaluated on day 60): 142 % of control | T/C (T/C endpoint: mean survival time, dose: 600.0 mg/kg/injection, schedule: Q04DX003 (ip), vehicle: saline): 148 % of control | survivor count (T/C endpoint: mean survival time, dose: 1000.0 mg/kg/injection, schedule: Q04DX003 (ip), vehicle: Klucel (hydroxypropylcellulose) (HPC)): 8 of 10 | survivor count (T/C endpoint: mean survival time, dose: 1024.0 mg/kg/injection, schedule: Q01DX001 (ip), vehicle: saline): 5 of 8 | survivor count (T/C endpoint: mean survival time, dose: 1024.0 mg/kg/injection, schedule: Q01DX001 (oral), vehicle: saline): 5 of 8 | survivor count (T/C endpoint: mean survival time, dose: 1024.0 mg/kg/injection, schedule: Q01DX009 (oral), vehicle: saline): 2 of 8 | T/C (T/C endpoint: mean survival time, dose: 1024.0 mg/kg/injection, schedule: Q08DX002 (ip), vehicle: saline): 129 % of control | T/C (T/C endpoint: median survival time, dose: 8.0 mg/kg/injection, schedule: Q01DX009 (ip), vehicle: saline): 127 % of control | T/C (T/C endpoint: median survival time, dose: 8.0 mg/kg/injection, schedule: Q03HX008 (ip), vehicle: saline): 127 % of control | T/C (T/C endpoint: median survival time, dose: 8.0 mg/kg/injection, schedule: Q03HX024 (ip), vehicle: saline): 133 % of control | T/C (T/C endpoint: median survival time, dose: 16.0 mg/kg/injection, schedule: Q01DX009 (ip), vehicle: saline): 144 % of control | T/C (T/C endpoint: median survival time, dose: 16.0 mg/kg/injection, schedule: Q03HX016 (ip), vehicle: saline): 133 % of control
